From article doi:10.1101/2021.10.14.464368
Results are given in words; binding and its absence hold for the method and conditions named. Binding seen in cells or lysates may run through a third protein. These calls come from enrichment with a bait or labelling near it, and not all partners need be listed. Tags and fused reporters may be left off the sequences shown.

T1: RTN4IP1-V5-TurboID (human) (UniProt Q8WWV3)
T1 sequence: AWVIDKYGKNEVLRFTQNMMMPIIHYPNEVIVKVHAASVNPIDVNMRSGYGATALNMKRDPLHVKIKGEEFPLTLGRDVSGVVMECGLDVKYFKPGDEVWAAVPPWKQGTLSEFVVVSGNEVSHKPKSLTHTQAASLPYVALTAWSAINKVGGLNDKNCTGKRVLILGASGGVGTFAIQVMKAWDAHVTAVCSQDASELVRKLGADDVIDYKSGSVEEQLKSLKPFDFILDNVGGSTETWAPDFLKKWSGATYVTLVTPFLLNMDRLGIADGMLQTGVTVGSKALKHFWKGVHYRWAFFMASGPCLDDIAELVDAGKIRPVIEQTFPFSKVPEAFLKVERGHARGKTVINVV


Target: T1, RTN4IP1-V5-TurboID (human)
Assay: proximity labelling

Row | binding | Binder
1 | binds | COQ5 (protein, UniProt Q5HYK3 43-327, biotinylated lysine residues (K + 226 Da) after TurboID labelling) LSQEKRAAETHFGFETVSEEEKGGKVYQVFESVAKKYDVMNDMMSLGIHRVWKDLLLWKMHPLPGTQLLDVAGGTGDIAFRFLNYVQSQHQRKQKRQLRAQQNLSWEEIAKEYQNEEDSLGGSRVVVCDINKEMLKVGKQKALAQGYRAGLAWVLGDAEELPFDDDKFDIYTIAFGIRNVTHIDQALQEAHRVLKPGGRFLCLEFSQVNNPLISRLYDLYSFQVIPVLGEVIAGDWKSYQYLVESIRRFPSQEEFKDMIEDAGFHKVTYESLTSGIVAIHSGFKL
2 | binds | COQ3 (protein, UniProt Q9NZJ6 86-369, biotinylated lysine residues (K + 226 Da) after TurboID labelling) STSQTTVDSGEVKTFLALAHKWWDEQGVYAPLHSMNDLRVPFIRDNLLKTIPNHQPGKPLLGMKILDVGCGGGLLTEPLGRLGASVIGIDPVDENIKTAQCHKSFDPVLDKRIEYRVCSLEEIVEETAETFDAVVASEVVEHVIDLETFLQCCCQVLKPGGSLFITTINKTQLSYALGIVFSEQIASIVPKGTHTWEKFVSPETLESILESNGLSVQTVVGMLYNPFSGYWHWSENTSLNYAAYAVKSRVQEHPASAEFVLKGETEELQANACTNPAVHEKLKK
